Data as given in PubChem BioAssay AID1259405 (NCATS, 2018).
In all, the deposit lists about 50,000 reagents; below is a random part of them. About 4,000 of all reagents (8%) were called active. 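Mouse siRNA library applied to hamster cells; one well for each siRNA.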 Entries without a mark were called inactive. Reagents against one gene are numbered here.

Screen: 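Silenced genes that increase secreted GFP made by CHO cells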 (primary screen)
Cells: Chinese hamster CHO-K1 ovary cells with stable secreted eGFP expression
Knock-down reagent: single siRNA against mouse genes, 0.8 pmol siRNA per well (2 µl of 400 nM stock)
Timing: 3 days
Read-out: 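Percent of the per-plate non-targeting control median for intracellular GFP per well by laser scanning cytometry and for cell viability by ATP luminescence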
Reading the numbers: GFP, % of control: higher = more GFP per well, higher productivity; viability (ATP), % of control: higher = more viable cells (more ATP)
Call rule: 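a knock-down is called active if GFP reaches 120% or more of non-targeting control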

Nupr1 #1 — GFP, % of control = 63.8; viability (ATP), % of control = 59.6
Nupr1 #2 — GFP, % of control = 120; viability (ATP), % of control = 62.1
Nupr1 #3 — GFP, % of control = 80.2; viability (ATP), % of control = 51.3
Pptc7 #1 — GFP, % of control = 74.6; viability (ATP), % of control = 84.6
Pptc7 #2 — GFP, % of control = 58.3; viability (ATP), % of control = 54.2
Pptc7 #3 — GFP, % of control = 73.9; viability (ATP), % of control = 96.8
Osbpl5 #1 — GFP, % of control = 66.9; viability (ATP), % of control = 89.2
Osbpl5 #2 — GFP, % of control = 89.9; viability (ATP), % of control = 65.3
Osbpl5 #3 — GFP, % of control = 220 (active); viability (ATP), % of control = 168
Osbpl5 #4 — GFP, % of control = 83.8; viability (ATP), % of control = 103
Osbpl5 #5 — GFP, % of control = 115; viability (ATP), % of control = 100
Osbpl5 #6 — GFP, % of control = 104; viability (ATP), % of control = 92.1
Lcor #1 — GFP, % of control = 51.4; viability (ATP), % of control = 43.6
Lcor #2 — GFP, % of control = 88.3; viability (ATP), % of control = 77.9
Lcor #3 — GFP, % of control = 57.9; viability (ATP), % of control = 56
Tead1 #1 — GFP, % of control = 146 (active); viability (ATP), % of control = 92.8
Tead1 #2 — GFP, % of control = 81.6; viability (ATP), % of control = 78.6
Tead1 #3 — GFP, % of control = 101; viability (ATP), % of control = 112
Or4k15 #1 — GFP, % of control = 115; viability (ATP), % of control = 103
Or4k15 #2 — GFP, % of control = 68.2; viability (ATP), % of control = 84
Or4k15 #3 — GFP, % of control = 102; viability (ATP), % of control = 14.2
Igsf8 #1 — GFP, % of control = 61.6; viability (ATP), % of control = 69.2
Igsf8 #2 — GFP, % of control = 86.9; viability (ATP), % of control = 80.6
Igsf8 #3 — GFP, % of control = 87.7; viability (ATP), % of control = 79.1
Dock6 #1 — GFP, % of control = 92.5; viability (ATP), % of control = 68.2
Dock6 #2 — GFP, % of control = 99.8; viability (ATP), % of control = 88.8
Dock6 #3 — GFP, % of control = 62; viability (ATP), % of control = 60.7
Ttc16 #1 — GFP, % of control = 47.6; viability (ATP), % of control = 48.1
Ttc16 #2 — GFP, % of control = 88.6; viability (ATP), % of control = 118
Ttc16 #3 — GFP, % of control = 67.7; viability (ATP), % of control = 63.9
Evi5l #1 — GFP, % of control = 97.5; viability (ATP), % of control = 84.3
Evi5l #2 — GFP, % of control = 70.3; viability (ATP), % of control = 62.1
Evi5l #3 — GFP, % of control = 82; viability (ATP), % of control = 79.2
Septin3 #1 — GFP, % of control = 83; viability (ATP), % of control = 70.9
Septin3 #2 — GFP, % of control = 51.5; viability (ATP), % of control = 56.9
Septin3 #3 — GFP, % of control = 66.1; viability (ATP), % of control = 64.8
Nol12 #1 — GFP, % of control = 79.9; viability (ATP), % of control = 88.4
Nol12 #2 — GFP, % of control = 78.2; viability (ATP), % of control = 86.1
Nol12 #3 — GFP, % of control = 64.9; viability (ATP), % of control = 66.1
Rad9b #1 — GFP, % of control = 46; viability (ATP), % of control = 47.1
Rad9b #2 — GFP, % of control = 48.5; viability (ATP), % of control = 61.6
Rad9b #3 — GFP, % of control = 71.6; viability (ATP), % of control = 97.7
Rad9b #4 — GFP, % of control = 55.3; viability (ATP), % of control = 29.9
Rad9b #5 — GFP, % of control = 63.6; viability (ATP), % of control = 45.6
Rad9b #6 — GFP, % of control = 60.9; viability (ATP), % of control = 87.2
Airim #1 — GFP, % of control = 77.6; viability (ATP), % of control = 57.7
Airim #2 — GFP, % of control = 64.8; viability (ATP), % of control = 49.3
Airim #3 — GFP, % of control = 101; viability (ATP), % of control = 108
Usp2 #1 — GFP, % of control = 68.4; viability (ATP), % of control = 74.7
Usp2 #2 — GFP, % of control = 112; viability (ATP), % of control = 90.7
Usp2 #3 — GFP, % of control = 101; viability (ATP), % of control = 69.9
Ccr9 #1 — GFP, % of control = 92.8; viability (ATP), % of control = 75.7
Ccr9 #2 — GFP, % of control = 100; viability (ATP), % of control = 86.2
Ccr9 #3 — GFP, % of control = 108; viability (ATP), % of control = 92.8

Part of the list above, set out differently:
target gene	reagent no.	GFP, % of control	viability (ATP), % of control
Igsf8	3	87.7	79.1
Dock6	1	92.5	68.2
Dock6	2	99.8	88.8
